Data on 88 molecules can be found in the supplement of paper PMC3682954.

Structures are written as SMILES. Several values for one entry are separate records, joined by “and”; a condition that tells them apart may be missing. Equal entries are not always repeated. Structures can show the parent of a compound that is named as a salt. ± gives the standard deviation of the averaged measurements. The list shows a part of the results. Single values are uncertain, as repeats are few or missing.

This test deals with RAW 264.7. As to the kind of experiment: cell viability (MTT) relative to vehicle control; higher = more viable cells. Conditions: stimulus: HMGB1 5 ug/ml, 18 h.
Where [1] appears, read: compound concentration: 1 ug/ml.

The cell viability is a read-out of living cells in per cent, often relative to untreated cells. `CC(C)NCC(O)c1ccc(O)c(O)c1` (stereo not drawn) [S(+)-Isoproterenol (+)-bitartrate]: the cell viability (compound concentration: 3 uM) was 98.6%.

For the molecule `CC(C)NCC(O)c1ccc(O)c(O)c1` (stereo not given), the cell viability (compound concentration: 3 uM) came to 96.8%. Still for that read-out and setting: the figure for `CCCCCN(CCCCC)C(=O)C(CCC(=O)O)NC(=O)c1ccc(Cl)c(Cl)c1` (stereo not given) is 108%.

For `CCCCCN(CCCCC)C(=O)C(CCC(=O)O)NC(=O)c1ccc(Cl)c(Cl)c1` (stereo not given) [Lorglumide sodium], the cell viability (compound concentration: 3 uM) was 104%. On the same count and under the same terms, the figure for `CCCCCN(CCCCC)C(=O)C(CCC(=O)O)NC(=O)c1ccc(Cl)c(Cl)c1` (stereo not given) [Lorglumide] is 110%. Still for that read-out and setting: the figure for `CCCCCN(CCCCC)C(=O)C(CCC(=O)O)NC(=O)c1ccc(Cl)c(Cl)c1` (stereo not given) [Lorglumide sodium salt] is 106%; for `Nc1nc2c(ncn2COCCO)c(=O)[nH]1` [Acyclovir] it is 91.2 ± 2.1%. The same measure, in the same setting: the figure for `Nc1nc2c(ncn2COCCO)c(=O)[nH]1` is 118 ± 25%. As to `Nc1nc2c(ncn2COCCO)c(=O)[nH]1` [Acycloguanosine], the cell viability (compound concentration: 3 uM) was determined as 91%.

Regarding `NCCSSCCN` [Cystamine dihydrochloride], the cell viability (compound concentration: 3 uM) was found to be 99.4%. As for `CC(C)CC(N)C(=O)O` (racemic) [DL-Leucine], the cell viability under setting [1] was found to be 107%. `Cc1cc(NC2CCCCC2)nc(-n2nc(C)cc2C)n1`: for the setting “compound concentration: 3 uM”, the cell viability came out at 98.4%.

Take `OC(CCN1CCCCC1)(c1ccccc1)c1ccccc1`: the cell viability (compound concentration: 3 uM) was 110%. Same read-out and setting: the figure for `OC(CCN1CCCCC1)(c1ccccc1)c1ccccc1` [Pridinol methanesulfonate salt] is 116%; for `CCCCC(=O)N(Cc1ccc(-c2ccccc2-c2nnn[nH]2)cc1)[C@H](C(=O)O)C(C)C` it is 104 ± 15%; for `CCN(CC)CCNC(=O)c1cc(Br)c(N)cc1OC` it is 111%. Turning to `CCN(CC)CCNC(=O)c1cc(Br)c(N)cc1OC` [Bromopride], the cell viability (compound concentration: 3 uM) came out at 108%.

`CCc1ccc(/C=C2/SC(=S)NC2=O)cc1`: the cell viability (compound concentration: 3 uM) worked out at 86.7%. Regarding `CC1=CC(=O)[C@H]2C[C@@H]1C2(C)C` [L(-)-Verbenone], the cell viability under setting [1] amounted to 104%. Consider `C=CCNc1ncnc2ccc(Br)cc12`, for which the cell viability (compound concentration: 3 uM) is 104%.

Turning to `O=C(O)C(=O)Cc1ccccc1` [Phenylpyruvic acid], the cell viability under setting [1] was 92.9%. In the case of `CC(C)NNC(=O)c1ccncc1` [Iproniazide phosphate], for the setting “compound concentration: 3 uM”, the cell viability was 106%.

With `CC(C)NNC(=O)c1ccncc1` [Iproniazid], the cell viability (compound concentration: 3 uM) turned out to be 103%.

Turning to `CC(C)NNC(=O)c1ccncc1` [Iproniazid phosphate], for the setting “compound concentration: 3 uM”, the cell viability is 104%. Regarding `CC(C)NNC(=O)c1ccncc1`, the cell viability (compound concentration: 3 uM) turned out to be 103 ± 9.2%. Take `O=c1cc(-c2ccc(O)c(O)c2)oc2cccc(O)c12`: the cell viability under setting [1] was 77%.

Turning to `O=C(O)c1cc(=O)c2ccccc2[nH]1` [Kynurenic Acid], under setting [1], the cell viability came to 95.1%. In the case of `O=C(O)c1cc(=O)c2ccccc2[nH]1` [Kynurenic acid], the cell viability (compound concentration: 3 uM) turned out to be 96.5%. On the same count and under the same terms, the figure for `CCOC(N)=O` is 113 ± 24%; for `O=c1cc(N2CCOCC2)oc2c(-c3ccccc3)cccc12` [LY-294,002 hydrochloride] it is 95.3%.

As to `O=C1c2cccc(O)c2C(=O)c2c(O)cccc21`, the cell viability (compound concentration: 3 uM) came out at 111%. Still for that read-out and setting: the figure for `CCCCc1ncc(/C=C(\Cc2cccs2)C(=O)O)n1Cc1ccc(C(=O)O)cc1` [Eprosartan] is 92%; for `N[C@@H](Cc1ccc(O)c(O)c1)C(=O)O` [Levodopa] it is 98.3 ± 8.2%; for `N[C@@H](Cc1ccc(O)c(O)c1)C(=O)O` [L-3,4-Dihydroxyphenylalanine] it is 99.9%. Same read-out and setting: the figure for `N[C@@H](Cc1ccc(O)c(O)c1)C(=O)O` is 110%; for `CN1CCN2c3ccccc3Cc3ccccc3C2C1` (stereo not given) it is 101%. Consider `CN1CCN2c3ccccc3Cc3ccccc3C2C1` (stereo not given) [Mianserine hydrochloride], for which the cell viability (compound concentration: 3 uM) stood at 100%.

In the case of `CN1CCN2c3ccccc3Cc3ccccc3C2C1` (stereo not given) [Mianserin], for the setting “compound concentration: 3 uM”, the cell viability was found to be 115%. The same measure, in the same setting: the figure for `CN1CCN2c3ccccc3Cc3ccccc3C2C1` (stereo not given) [Mianserin hydrochloride] is 103%. On the same count and under the same terms, the figure for `CCN1CCCC1CNC(=O)c1cc(S(N)(=O)=O)ccc1OC` (single isomer, unassigned; (-)) [(-)-Sulpiride] is 116%.

For the molecule `CCC=CCC1C(=O)CCC1CC(=O)O` (racemic) [(+/-)-Jasmonic acid], the cell viability under setting [1] was 104%. With `O=C(O)CCC(=O)c1ccc(-c2ccccc2)cc1` [Fenbufen], the cell viability (compound concentration: 3 uM) stood at 106 ± 16%. Regarding `O=C(O)CCC(=O)c1ccc(-c2ccccc2)cc1`, where the note is “compound concentration: 3 uM”, the cell viability came to 107%. Regarding `O=C(O)c1coc2ccc(F)cc2c1=O` [6-Fluorochromone-3-carboxylic acid], under setting [1], the cell viability came to 112%. Regarding `Nc1ncn(C2OC(CO)C(O)C2O)c(=O)n1` (stereo not given) [Azacytidine-5], the cell viability (compound concentration: 3 uM) was determined as 56.5%. Still for that read-out and setting: the figure for `C[N+](C)(C)CCOC(N)=O` is 106%.

Turning to `C[N+](C)(C)CCOC(N)=O` [Carbamylcholine], the cell viability (compound concentration: 3 uM) amounted to 117%.

For the molecule `C[N+](C)(C)CCOC(N)=O` [Carbachol], the cell viability (compound concentration: 3 uM) was found to be 111 ± 8.7%. Same read-out and setting: the figure for `CC(C)(C)NC[C@H](O)COc1cccc2c1CCCC2=O` [(-) -Levobunolol hydrochloride] is 85.5%; for `CCN1C(=O)C=CC1=O` [N-Ethylmaleimide] it is 105%.

As to `O=C(NC(Cc1cc(=O)[nH]c2ccccc12)C(=O)O)c1ccc(Cl)cc1` (stereo not given), the cell viability (compound concentration: 3 uM) is 110%. In the case of `O=C(NC(Cc1cc(=O)[nH]c2ccccc12)C(=O)O)c1ccc(Cl)cc1` (stereo not given) [Rebamipide], the cell viability (compound concentration: 3 uM) is 104 ± 2.2%.

For `O=C1c2c(O)ccc(O)c2C(=O)c2c(NCCNCCO)ccc(NCCNCCO)c21`, the cell viability (compound concentration: 3 uM) was found to be 5.55 ± 5.6%.

In the case of `O=C1c2c(O)ccc(O)c2C(=O)c2c(NCCNCCO)ccc(NCCNCCO)c21` [Mitoxantrone], the cell viability (compound concentration: 3 uM) stood at 31.8 ± 26%.

`O=C1c2c(O)ccc(O)c2C(=O)c2c(NCCNCCO)ccc(NCCNCCO)c21` [Mitoxantrone dihydrochloride]: the cell viability (compound concentration: 3 uM) stood at 2.95%. The same measure, in the same setting: the figure for `Cc1nc2sccn2c(=O)c1CCN1CCC(=C(c2ccc(F)cc2)c2ccc(F)cc2)CC1` [Ritanserin] is 122%; for `Cc1nc2sccn2c(=O)c1CCN1CCC(=C(c2ccc(F)cc2)c2ccc(F)cc2)CC1` it is 92.9%. The same measure, in the same setting: the figure for `CO[C@H]1C[C@H](O[C@@H]2/C(C)=C/C[C@@H]3C[C@@H](C[C@]4(CC[C@H](C)[C@@H](C5CCCCC5)O4)O3)OC(=O)[C@@H]3C=C(C)/C(=N/O)[C@H]4OC/C(=C\C=C\[C@@H]2C)[C@]43O)O[C@@H](C)[C@@H]1O` is 88.1%. For `C[C@H](CCC(=O)O)[C@H]1CC[C@H]2[C@@H]3C(=O)C[C@@H]4CC(=O)CC[C@]4(C)[C@H]3CC(=O)[C@]12C` [Dehydrocholic acid], the cell viability was 97.4% under setting [1] and 92% (compound concentration: 3 uM).

With `C[C@H](CCC(=O)O)[C@H]1CC[C@H]2[C@@H]3C(=O)C[C@@H]4CC(=O)CC[C@]4(C)[C@H]3CC(=O)[C@]12C`, the cell viability (compound concentration: 3 uM) is 98.8% and 102%. On the same count and under the same terms, the figure for `CCOC(=O)C1=C(C)NC(C)=C(C(=O)OC)C1c1cccc(Cl)c1Cl` (stereo not given) [Felodipine] is 102 ± 12%; for `COc1cc2nc(N3CCCN(C)CC3)nc(NC3CCN(Cc4ccccc4)CC3)c2cc1OC` it is 98.7%.

As to `O=S(=O)(c1cccc2cnccc12)N1CCCNCC1`, the cell viability (compound concentration: 3 uM) is 106%. Still for that read-out and setting: the figure for `CCc1nn(CCCN2CCN(c3cccc(Cl)c3)CC2)c(=O)n1CCOc1ccccc1` [Nefazodone] is 93.8 ± 1.5%. Same read-out and setting: the figure for `CCc1nn(CCCN2CCN(c3cccc(Cl)c3)CC2)c(=O)n1CCOc1ccccc1` [Nefazodone HCl] is 103%. In the case of `NC1CONC1=O` (racemic) [DL-Cycloserine], the cell viability (compound concentration: 3 uM) is 108%. Take `CN(C)CCCc1cc(C(=O)Nc2ccc(-c3ccncc3)cc2)ccc1O`: the cell viability (compound concentration: 3 uM) turned out to be 111%. Same read-out and setting: the figure for `CC(=O)Nc1ccc(OC(C)=O)cc1` is 111%; for `NC1CCN(c2c(F)cc3c(=O)c(C(=O)O)cn(C4CC4)c3c2Cl)C1` (stereo not given) [Clinafloxacin] it is 105%. For `NC[C@@H]1O[C@H](O[C@H]2[C@@H](O)[C@H](O[C@@H]3[C@@H](O)[C@H](N)C[C@H](N)[C@H]3O[C@H]3O[C@H](CN)[C@@H](O)[C@H](O)[C@H]3N)O[C@@H]2CO)[C@H](N)[C@@H](O)[C@@H]1O` [Neomycin B sulfate; Neomycin Trisulfate], the cell viability under setting [1] came out at 116%. With `NC[C@@H]1O[C@H](O[C@H]2[C@@H](O)[C@H](O[C@@H]3[C@@H](O)[C@H](N)C[C@H](N)[C@H]3O[C@H]3O[C@H](CN)[C@@H](O)[C@H](O)[C@H]3N)O[C@@H]2CO)[C@H](N)[C@@H](O)[C@@H]1O` [Neomycin], where the note is “compound concentration: 3 uM”, the cell viability was determined as 102%. The same measure, in the same setting: the figure for `CCC1(C)CC(=O)NC1=O` (stereo not given) is 104%; for `CCC1(C)CC(=O)NC1=O` (stereo not given) [Ethosuximide] it is 101 ± 6.2%. The same measure, in the same setting: the figure for `CC(NCCc1ccc(O)cc1)C(O)c1ccc(O)cc1` (stereo not given) [Ritodrine hydrochloride] is 111 ± 19%. Still for that read-out and setting: the figure for `CC(NCCc1ccc(O)cc1)C(O)c1ccc(O)cc1` (stereo not given) is 108%. For the molecule `CC(=O)O[C@H]1[C@H](C)OC=C[C@@H]1OC(C)=O` [3,4-Di-O-acetyl-6-deoxy-L-glucal], under setting [1], the cell viability was 92.2%.

On to `Cc1nc2c([nH]1)c(=O)n(C)c(=O)n2Cc1ccco1` [Furafylline], for which the cell viability (compound concentration: 3 uM) was 112 ± 3%.

Consider `C[N+](C)(CCOc1ccccc1)Cc1ccccc1.O=C([O-])c1cc2ccccc2cc1O` [Bephenium hydroxynaphthoate], for which the cell viability (compound concentration: 3 uM) was 89.9%.

Take `OC[C@H]1NC[C@@H](O)[C@@H]1O` [1,4-Dideoxy-1,4-imino-D-arabinitol]: the cell viability (compound concentration: 3 uM) came out at 110%. Turning to `CCCNC(C)(C)COC(=O)c1ccccc1` [Meprylcaine hydrochloride], under “compound concentration: 3 uM”, the cell viability turned out to be 97.4%. Still for that read-out and setting: the figure for `NNC(=O)c1ccncc1.Nc1ccc(C(=O)O)c(O)c1` is 113%; for `CCCc1nn(C)c2c(=O)[nH]c(-c3cc(S(=O)(=O)N4CCN(C)CC4)ccc3OCC)nc12` [Sildenafil] it is 121 ± 9.9%.

Consider `COc1cc(CNC(=O)CCCCCCC(C)C)ccc1O` [Dihydrocapsaicin], for which the cell viability under setting [1] turned out to be 88.7% and the cell viability (compound concentration: 3 uM) amounted to 102%. As for `CC(=O)Oc1ccc(C(c2ccc(OC(C)=O)cc2)c2ccccn2)cc1`, where the note is “compound concentration: 3 uM”, the cell viability amounted to 106%. On the same count and under the same terms, the figure for `CC(=O)Oc1ccc(C(c2ccc(OC(C)=O)cc2)c2ccccn2)cc1` [Bisacodyl] is 109 ± 1.9%; for `CCC(C)(C)C(=O)O[C@H]1C[C@@H](C)C=C2C=C[C@H](C)[C@H](CC[C@@H]3C[C@@H](O)CC(=O)O3)[C@H]21` [Simvastatin] it is 113 ± 9.2%. The same measure, in the same setting: the figure for `CCC(C)(C)C(=O)O[C@H]1C[C@@H](C)C=C2C=C[C@H](C)[C@H](CC[C@@H]3C[C@@H](O)CC(=O)O3)[C@H]21` is 96.8%; for `C[C@@H]1CN(c2c(F)c(F)c3c(=O)c(C(=O)O)cn(C4CC4)c3c2F)C[C@H](C)N1` it is 108%.
